Measured values as given in paper PMC11704248, “Alternative splicing in the DBD linker region of p63 modulates binding to DNA and iASPP in vitro” (Cell Death & Disease, 2025).
Read-outs that look alike come from different tables or passages of the source. These are yes or no findings as the source states them, for the method shown. Binding seen in cells or lysates may run through a third protein. A result given as binding can be weak or reduced; the word gives no strength. For part of these data: Sequences can lack the tags named with a protein. Blank lines part the entries; values can stand above or below the molecule they belong to.

Protein sequences, listed by entry. Tags and fused reporters are not part of them. Lines headed by an entry give the natural chain unless they say otherwise; changes in a name come on top.
UniProt Q13625: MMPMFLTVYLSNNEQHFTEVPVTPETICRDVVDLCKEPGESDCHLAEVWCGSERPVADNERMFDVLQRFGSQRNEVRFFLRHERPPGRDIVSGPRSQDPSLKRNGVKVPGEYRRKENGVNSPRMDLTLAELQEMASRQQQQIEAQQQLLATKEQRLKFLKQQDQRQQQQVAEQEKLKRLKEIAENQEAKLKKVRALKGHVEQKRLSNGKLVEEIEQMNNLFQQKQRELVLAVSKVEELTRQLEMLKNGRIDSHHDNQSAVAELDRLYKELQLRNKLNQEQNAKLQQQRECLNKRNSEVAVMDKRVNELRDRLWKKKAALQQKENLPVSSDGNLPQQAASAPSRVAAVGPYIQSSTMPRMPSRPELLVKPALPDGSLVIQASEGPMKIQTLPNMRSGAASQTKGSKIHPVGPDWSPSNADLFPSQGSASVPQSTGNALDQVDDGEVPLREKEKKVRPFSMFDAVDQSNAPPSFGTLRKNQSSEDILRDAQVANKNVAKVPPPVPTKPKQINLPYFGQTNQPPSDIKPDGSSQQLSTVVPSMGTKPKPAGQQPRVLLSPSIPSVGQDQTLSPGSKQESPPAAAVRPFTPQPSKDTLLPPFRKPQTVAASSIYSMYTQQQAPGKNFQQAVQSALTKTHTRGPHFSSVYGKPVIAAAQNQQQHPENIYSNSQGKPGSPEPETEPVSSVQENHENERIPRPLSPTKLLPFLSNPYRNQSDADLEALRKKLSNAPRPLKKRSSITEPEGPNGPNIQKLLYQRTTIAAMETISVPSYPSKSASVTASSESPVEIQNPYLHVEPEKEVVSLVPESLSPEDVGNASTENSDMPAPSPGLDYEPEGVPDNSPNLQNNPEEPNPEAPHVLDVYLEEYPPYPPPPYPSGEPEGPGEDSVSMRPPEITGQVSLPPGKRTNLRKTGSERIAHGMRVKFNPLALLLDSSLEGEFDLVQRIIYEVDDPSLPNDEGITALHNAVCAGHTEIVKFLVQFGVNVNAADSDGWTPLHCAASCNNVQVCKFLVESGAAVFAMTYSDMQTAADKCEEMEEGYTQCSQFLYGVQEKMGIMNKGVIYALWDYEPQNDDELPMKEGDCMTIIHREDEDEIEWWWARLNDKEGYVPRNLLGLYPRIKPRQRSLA

Experiments:
Experiment in all cases: pull-down; purified GST-tagged ASPP CTDs immobilised on magnetic glutathione agarose beads; N-terminally Myc-tagged prey in vitro translated in RRL; 3 h at 4 °C; 50 mM Tris pH 8.0, 150 mM NaCl, 0.1% Tween-20; WB with α-Myc; only the target purified
GST-tagged iASPP CTD = target: T1, GST-tagged iASPP CTD (UniProt Q8WUF5)
T1 sequence: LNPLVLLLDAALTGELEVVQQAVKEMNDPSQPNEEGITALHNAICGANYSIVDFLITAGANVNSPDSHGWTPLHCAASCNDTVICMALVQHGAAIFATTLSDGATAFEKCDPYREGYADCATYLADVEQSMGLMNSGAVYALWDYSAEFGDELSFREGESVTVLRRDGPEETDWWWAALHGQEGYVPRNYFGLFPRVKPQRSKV

GST-tagged ASPP2 CTD [1] = target: GST-tagged ASPP2 CTD (UniProt Q13625)
GST-tagged ASPP2 CTD [2] = target: GST-tagged ASPP2 CTD (UniProt Q13625); remark: listed apart in the source

binding (GST-tagged iASPP CTD): binds
Molecule: Myc-tagged ΔNp63α R279H

binding (GST-tagged ASPP2 CTD [2]): binds
B1: Myc-tagged ΔNp63α WT (protein, UniProt Q9H3D4-2 1-586)
chain: MLYLENNAQTQFSEPQYTNLGLLNSMDQQIQNGSSSTSPYNTDHAQNSVTAPSPYAQPSSTFDALSPSPAIPSNTDYPGPHSFDVSFQQSSTAKSATWTYSTELKKLYCQIAKTCPIQIKVMTPPPQGAVIRAMPVYKKAEHVTEVVKRCPNHELSREFNEGQIAPPSHLIRVEGNSHAQYVEDPITGRQSVLVPYEPPQVGTEFTTVLYNFMCNSSCVGGMNRRPILIIVTLETRDGQVLGRRCFEARICACPGRDRKADEDSIRKQQVSDSTKNGDGTKRPFRQNTHGIQMTSIKKRRSPDDELLYLPVRGRETYEMLLKIKESLELMQYLPQHTIETYRQQQQQQHQHLLQKQTSIQSPSSYGNSSPPLNKMNSMNKLPSVSQLINPQQRNALTPTTIPDGMGANIPMMGTHMPMAGDMNGLSPTQALPPPLSMPSTSHCTPPPPYPTDCSIVSFLARLGCSSCLDYFTTQGLTTIYQIEHYSMDDLASLKIPEQFRHAIWKGILDHRQLHEFSSPSHLLRTPSSASTVSVGSSETRGERVIDAVRFTLRQTISFPPRDEWNDFNFDMDARRNKQQRIKEEGE

The remaining lines, values behind:

Molecule: Myc-tagged TAp63α
binding (GST-tagged iASPP CTD): no binding

Molecule: Myc-tagged ΔNp63α R279H ΔExon8
binding (GST-tagged iASPP CTD): no binding

Molecule: Myc-tagged ΔNp63α ΔExon8 (from UniProt Q9H3D4-2)
binding (GST-tagged ASPP2 CTD [1]): binds

Molecule: Myc-tagged ΔNp73α R268H
binding (GST-tagged iASPP CTD): binds
